In the supplement of paper PMC10849652:
This is one part of the list. Residues, ends and D or L forms follow the SMILES beside them. *: point of attachment. Cbz = O=C(OCc1ccccc1)*

By UniProt entry, the sequences of proteins in these tests, tags left out. Where a name states a change or a piece, a line headed by the entry shows the natural chain unless it says otherwise.
UniProt Q8WWZ3: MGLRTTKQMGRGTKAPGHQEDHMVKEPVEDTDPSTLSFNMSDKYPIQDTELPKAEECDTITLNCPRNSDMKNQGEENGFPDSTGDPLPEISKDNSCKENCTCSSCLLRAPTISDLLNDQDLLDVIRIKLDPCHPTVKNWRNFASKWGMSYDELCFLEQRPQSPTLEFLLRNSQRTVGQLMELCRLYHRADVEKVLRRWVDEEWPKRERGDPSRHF
UniProt Q9NVH1: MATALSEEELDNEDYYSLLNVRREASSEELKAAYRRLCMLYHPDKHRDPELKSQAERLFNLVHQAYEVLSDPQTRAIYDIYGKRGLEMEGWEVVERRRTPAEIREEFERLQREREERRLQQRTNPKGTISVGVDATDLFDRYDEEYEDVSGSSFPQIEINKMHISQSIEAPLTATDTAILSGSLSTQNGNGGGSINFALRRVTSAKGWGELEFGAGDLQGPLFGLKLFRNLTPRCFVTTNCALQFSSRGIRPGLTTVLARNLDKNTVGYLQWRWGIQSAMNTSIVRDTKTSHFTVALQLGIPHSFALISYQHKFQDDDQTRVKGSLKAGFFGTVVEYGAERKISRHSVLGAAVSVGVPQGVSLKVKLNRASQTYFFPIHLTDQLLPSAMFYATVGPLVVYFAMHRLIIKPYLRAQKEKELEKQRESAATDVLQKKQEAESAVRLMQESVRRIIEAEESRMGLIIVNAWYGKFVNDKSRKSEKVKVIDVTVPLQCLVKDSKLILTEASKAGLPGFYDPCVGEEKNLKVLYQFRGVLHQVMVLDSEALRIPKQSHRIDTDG
UniProt Q13217: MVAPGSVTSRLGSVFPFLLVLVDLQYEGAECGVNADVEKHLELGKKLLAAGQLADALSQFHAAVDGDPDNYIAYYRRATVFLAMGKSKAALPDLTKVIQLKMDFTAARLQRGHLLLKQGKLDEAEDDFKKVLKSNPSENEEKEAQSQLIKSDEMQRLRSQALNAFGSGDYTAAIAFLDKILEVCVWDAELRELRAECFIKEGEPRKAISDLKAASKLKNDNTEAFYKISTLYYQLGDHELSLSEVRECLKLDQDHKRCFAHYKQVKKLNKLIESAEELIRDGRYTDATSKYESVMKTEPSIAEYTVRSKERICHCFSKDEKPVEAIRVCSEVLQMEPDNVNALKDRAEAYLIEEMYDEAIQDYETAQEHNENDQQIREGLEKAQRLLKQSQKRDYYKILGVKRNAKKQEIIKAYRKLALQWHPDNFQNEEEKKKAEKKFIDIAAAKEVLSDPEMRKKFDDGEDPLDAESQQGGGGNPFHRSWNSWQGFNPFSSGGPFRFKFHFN
UniProt Q99543: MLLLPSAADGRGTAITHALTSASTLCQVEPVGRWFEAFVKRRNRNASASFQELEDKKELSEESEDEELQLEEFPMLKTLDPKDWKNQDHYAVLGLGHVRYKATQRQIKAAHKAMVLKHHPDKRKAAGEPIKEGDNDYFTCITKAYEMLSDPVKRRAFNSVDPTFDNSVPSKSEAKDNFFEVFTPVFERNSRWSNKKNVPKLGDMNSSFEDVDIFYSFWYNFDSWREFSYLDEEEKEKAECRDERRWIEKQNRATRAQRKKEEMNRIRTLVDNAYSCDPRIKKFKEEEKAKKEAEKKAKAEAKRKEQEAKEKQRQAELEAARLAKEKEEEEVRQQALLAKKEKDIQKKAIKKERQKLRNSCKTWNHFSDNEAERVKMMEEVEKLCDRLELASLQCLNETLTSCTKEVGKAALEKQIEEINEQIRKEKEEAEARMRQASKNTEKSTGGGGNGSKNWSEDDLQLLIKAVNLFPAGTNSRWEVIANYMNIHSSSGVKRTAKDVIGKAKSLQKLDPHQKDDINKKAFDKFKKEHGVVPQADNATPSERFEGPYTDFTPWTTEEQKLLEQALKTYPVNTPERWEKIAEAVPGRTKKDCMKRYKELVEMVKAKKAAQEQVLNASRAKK
UniProt Q9H3H5: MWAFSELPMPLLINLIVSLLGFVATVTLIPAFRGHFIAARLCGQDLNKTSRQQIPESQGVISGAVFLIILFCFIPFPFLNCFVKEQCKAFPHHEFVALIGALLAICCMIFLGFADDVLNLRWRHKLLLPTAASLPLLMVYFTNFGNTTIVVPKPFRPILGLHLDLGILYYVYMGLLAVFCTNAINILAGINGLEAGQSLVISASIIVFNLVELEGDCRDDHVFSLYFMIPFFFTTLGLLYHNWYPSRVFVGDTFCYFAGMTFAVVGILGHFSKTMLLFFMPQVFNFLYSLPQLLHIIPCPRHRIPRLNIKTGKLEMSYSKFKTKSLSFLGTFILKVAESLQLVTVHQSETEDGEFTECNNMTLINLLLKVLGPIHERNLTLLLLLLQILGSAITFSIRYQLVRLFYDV
UniProt Q86TI2: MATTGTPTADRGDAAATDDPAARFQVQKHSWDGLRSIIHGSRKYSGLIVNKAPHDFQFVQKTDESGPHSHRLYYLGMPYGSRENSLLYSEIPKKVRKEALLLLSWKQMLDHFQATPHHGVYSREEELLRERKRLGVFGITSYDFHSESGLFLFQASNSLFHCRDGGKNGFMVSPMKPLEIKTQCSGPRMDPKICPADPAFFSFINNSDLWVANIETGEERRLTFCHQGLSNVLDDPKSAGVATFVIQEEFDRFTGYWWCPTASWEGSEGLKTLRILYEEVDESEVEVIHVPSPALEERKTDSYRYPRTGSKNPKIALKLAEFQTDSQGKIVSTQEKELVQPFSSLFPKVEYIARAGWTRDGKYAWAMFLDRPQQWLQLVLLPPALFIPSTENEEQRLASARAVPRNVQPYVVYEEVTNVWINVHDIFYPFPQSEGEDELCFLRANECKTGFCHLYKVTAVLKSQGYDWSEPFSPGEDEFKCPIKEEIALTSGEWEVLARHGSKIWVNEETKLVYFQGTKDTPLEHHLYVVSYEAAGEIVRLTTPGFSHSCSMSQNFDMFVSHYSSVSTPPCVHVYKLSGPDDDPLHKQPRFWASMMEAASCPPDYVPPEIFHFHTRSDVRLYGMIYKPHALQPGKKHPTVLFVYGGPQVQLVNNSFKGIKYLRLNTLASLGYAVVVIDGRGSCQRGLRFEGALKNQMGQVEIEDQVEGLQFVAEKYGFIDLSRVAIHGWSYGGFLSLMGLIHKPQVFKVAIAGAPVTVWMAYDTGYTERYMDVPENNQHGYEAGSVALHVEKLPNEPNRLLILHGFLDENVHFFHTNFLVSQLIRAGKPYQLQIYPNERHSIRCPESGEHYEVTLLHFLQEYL
UniProt Q8TEA8: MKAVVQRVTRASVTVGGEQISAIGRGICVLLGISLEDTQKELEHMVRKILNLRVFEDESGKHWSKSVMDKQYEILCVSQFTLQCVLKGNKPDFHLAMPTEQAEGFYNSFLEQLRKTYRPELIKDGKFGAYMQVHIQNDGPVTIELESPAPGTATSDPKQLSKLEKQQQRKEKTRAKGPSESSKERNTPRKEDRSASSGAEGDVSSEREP
UniProt Q5JSL3: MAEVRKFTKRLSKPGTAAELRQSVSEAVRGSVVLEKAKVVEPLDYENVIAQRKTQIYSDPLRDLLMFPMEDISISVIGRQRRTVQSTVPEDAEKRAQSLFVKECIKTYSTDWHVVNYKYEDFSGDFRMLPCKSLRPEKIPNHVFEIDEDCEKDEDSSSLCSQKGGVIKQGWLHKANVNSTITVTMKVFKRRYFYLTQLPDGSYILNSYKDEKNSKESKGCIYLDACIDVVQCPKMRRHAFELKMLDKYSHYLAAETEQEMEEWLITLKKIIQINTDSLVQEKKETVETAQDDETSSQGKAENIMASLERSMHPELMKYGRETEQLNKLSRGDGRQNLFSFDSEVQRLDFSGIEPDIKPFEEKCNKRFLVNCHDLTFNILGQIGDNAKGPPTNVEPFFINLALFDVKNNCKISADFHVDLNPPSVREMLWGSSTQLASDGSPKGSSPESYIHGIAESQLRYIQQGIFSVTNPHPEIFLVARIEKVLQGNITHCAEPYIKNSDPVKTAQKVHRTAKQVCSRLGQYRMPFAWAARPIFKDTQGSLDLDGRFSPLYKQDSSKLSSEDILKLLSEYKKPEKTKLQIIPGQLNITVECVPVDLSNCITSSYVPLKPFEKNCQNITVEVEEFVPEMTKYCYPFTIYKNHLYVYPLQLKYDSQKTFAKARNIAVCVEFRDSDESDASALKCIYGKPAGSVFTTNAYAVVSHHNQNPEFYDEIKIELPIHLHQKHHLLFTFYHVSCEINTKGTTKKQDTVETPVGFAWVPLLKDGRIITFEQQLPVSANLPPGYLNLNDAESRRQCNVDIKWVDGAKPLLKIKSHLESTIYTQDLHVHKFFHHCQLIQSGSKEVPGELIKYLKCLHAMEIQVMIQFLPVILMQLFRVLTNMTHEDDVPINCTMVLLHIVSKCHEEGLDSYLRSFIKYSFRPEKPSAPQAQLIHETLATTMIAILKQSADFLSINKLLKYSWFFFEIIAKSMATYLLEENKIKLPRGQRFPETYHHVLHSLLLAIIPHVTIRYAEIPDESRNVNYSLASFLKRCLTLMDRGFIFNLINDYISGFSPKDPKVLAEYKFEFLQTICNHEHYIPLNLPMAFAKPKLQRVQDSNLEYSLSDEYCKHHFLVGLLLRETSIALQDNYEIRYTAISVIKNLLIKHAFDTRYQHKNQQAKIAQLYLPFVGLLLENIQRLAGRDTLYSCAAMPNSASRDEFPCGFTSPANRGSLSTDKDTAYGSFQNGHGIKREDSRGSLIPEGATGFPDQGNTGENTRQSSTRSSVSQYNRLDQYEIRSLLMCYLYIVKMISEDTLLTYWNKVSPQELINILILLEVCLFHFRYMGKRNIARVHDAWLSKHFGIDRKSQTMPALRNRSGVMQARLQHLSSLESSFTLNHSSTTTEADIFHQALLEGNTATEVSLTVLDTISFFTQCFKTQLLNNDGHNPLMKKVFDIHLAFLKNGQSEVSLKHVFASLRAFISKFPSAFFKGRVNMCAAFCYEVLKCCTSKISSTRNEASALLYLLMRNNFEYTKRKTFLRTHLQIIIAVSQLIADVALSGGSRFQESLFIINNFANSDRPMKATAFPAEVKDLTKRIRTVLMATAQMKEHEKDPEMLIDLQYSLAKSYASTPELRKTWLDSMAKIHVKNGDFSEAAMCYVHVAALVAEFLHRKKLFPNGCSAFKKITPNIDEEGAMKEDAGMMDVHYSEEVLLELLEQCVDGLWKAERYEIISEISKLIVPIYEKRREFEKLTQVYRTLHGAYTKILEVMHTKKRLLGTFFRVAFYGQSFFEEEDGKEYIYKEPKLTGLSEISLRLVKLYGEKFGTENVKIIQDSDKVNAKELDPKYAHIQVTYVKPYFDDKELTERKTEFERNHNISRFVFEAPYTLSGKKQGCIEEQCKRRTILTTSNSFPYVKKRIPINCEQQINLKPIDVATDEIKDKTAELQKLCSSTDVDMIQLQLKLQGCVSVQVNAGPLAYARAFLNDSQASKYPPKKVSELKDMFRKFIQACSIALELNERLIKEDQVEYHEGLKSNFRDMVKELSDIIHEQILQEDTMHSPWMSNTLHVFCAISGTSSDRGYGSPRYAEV
UniProt Q9UKB3: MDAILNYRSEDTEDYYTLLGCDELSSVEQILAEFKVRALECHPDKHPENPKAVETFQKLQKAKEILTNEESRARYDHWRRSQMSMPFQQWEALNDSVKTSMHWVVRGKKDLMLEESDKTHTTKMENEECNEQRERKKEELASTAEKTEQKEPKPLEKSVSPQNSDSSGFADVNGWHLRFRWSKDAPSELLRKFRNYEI
UniProt Q9BZQ6: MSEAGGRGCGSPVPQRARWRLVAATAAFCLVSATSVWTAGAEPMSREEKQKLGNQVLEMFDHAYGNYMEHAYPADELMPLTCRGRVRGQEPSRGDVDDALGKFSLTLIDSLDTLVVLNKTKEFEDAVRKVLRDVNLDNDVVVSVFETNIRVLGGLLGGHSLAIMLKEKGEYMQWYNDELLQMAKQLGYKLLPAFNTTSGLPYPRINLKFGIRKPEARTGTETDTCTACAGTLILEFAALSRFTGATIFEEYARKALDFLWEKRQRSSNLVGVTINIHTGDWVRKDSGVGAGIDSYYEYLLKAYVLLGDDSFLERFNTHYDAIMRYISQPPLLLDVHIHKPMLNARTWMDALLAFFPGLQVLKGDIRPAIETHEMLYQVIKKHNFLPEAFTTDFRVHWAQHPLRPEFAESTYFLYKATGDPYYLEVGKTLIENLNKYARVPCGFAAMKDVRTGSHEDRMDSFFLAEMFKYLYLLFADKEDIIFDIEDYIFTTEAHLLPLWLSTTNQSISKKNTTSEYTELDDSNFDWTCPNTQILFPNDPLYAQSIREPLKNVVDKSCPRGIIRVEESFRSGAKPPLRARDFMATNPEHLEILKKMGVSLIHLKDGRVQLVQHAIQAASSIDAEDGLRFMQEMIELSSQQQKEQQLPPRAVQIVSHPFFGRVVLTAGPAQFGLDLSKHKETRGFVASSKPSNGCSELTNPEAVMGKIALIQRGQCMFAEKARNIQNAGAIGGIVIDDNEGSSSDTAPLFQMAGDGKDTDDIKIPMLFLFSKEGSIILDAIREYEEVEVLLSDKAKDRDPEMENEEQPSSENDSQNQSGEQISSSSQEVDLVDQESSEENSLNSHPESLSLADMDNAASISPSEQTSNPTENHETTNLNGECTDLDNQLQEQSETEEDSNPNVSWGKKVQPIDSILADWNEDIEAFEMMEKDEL

What was measured:
Assay in all cases: log2 fold change, soluble protein after heating vs DMSO (PISA); higher = thermal stabilisation; K562 cells, 10 uM, 30 min; active = over 0.2 and 3.5 SD of the protein, either way, in both replicates (recomputed)
IRAK-1-4 Inhibitor I = compound: C1COCCN1CCN2C3=CC=CC=C3N=C2NC(=O)C4=CC(=CC=C4)[N+](=O)[O-] [IRAK-1-4 Inhibitor I]
Summary of the method: (§1)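 For each measurement, 10 μM compound was applied for 30 min to K562 cells at 2×10^6 cells/mL. Aliquots were heated for 3 min across 48°C-58°C, pooled, and extracted in PBS with 0.5% NP-40 at 4°C; the supernatant after 21,000xg for 90 min was soluble protein. This was quantified by TMTpro 16plex LC-MS/MS with channel sums equalised, and thermal stability was reported relative to control samples from duplicates, on a log2 fold-change scale.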

ibrutinib = compound: C=CC(=O)N1CCC[C@@H](n2nc(-c3ccc(Oc4ccccc4)cc3)c3c(N)ncnc32)C1 [ibrutinib]
Summary of the method: as §1

[1] = compound: CC(=O)c1cnc2ccc(-c3cc(Cl)c(O)c(Cl)c3)nc2c1N[C@H]1CC[C@H](CN(C)C)CC1
Summary of the method: as §1

ralimetinib = compound: CC(C)(C)Cn1c(N)nc2ccc(-c3[nH]c(C(C)(C)C)nc3-c3ccc(F)cc3)nc21 [ralimetinib]
Summary of the method: as §1

[2] = compound: CC(C)(O)CC(=O)NCCn1ccc2ncnc(Nc3ccc(Oc4cccc(C(F)(F)F)c4)c(Cl)c3)c21
Summary of the method: as §1

[3] = compound: CC(C)C1=C2N=C(C=C(N2N=C1)NCC3=CC=CC=C3)NCCCCCCN
Summary of the method: as §1

[4] = compound: CC(C)C[C@@H](C=O)NC(=O)[C@H](CC(C)C)NC(=O)[C@H](CC(C)C)NC(=O)OCc1ccccc1
Summary of the method: as §1

pinometostat = compound: CC(C)N(C[C@H]1O[C@@H](n2cnc3c(N)ncnc32)[C@H](O)[C@@H]1O)[C@H]1C[C@@H](CCc2nc3cc(C(C)(C)C)ccc3[nH]2)C1 [pinometostat]
Summary of the method: as §1

[5] = compound: CC1=C(C(CC(=O)N1)C2=CC=C(C=C2)C(F)(F)F)C(=O)NC3=C(C=C4C(=C3)C=NN4)F
Summary of the method: as §1

[6] = compound: CC1=C(C2=C(C=C1)C(=O)C3=CC=CC=C3N2CCCN)C
Summary of the method: as §1

[7] = compound: CC1=C(C=C(C=C1)NC(=O)C2=CC(=CC=C2)C(C)(C)C#N)NC3=CC4=C(C=C3)N=CN(C4=O)C
Summary of the method: as §1

[8] = compound: CC1=C(C=C(C=C1)NC(=O)C2=CC(=CC=C2)N(C)C)NC(=O)C3=CC=C(C=C3)O
Summary of the method: as §1

[9] = compound: CC1=CC=C(C=C1)SC2=C3C=C(SC3=CN=C2)C(=O)N
Summary of the method: as §1

[10] = compound: CC1=NC(=CC=C1)C2=C(N=C(N2)C(C)(C)C)C3=CC4=NC=CN=C4C=C3
Summary of the method: as §1

Nexturastat A = compound: CCCCN(Cc1ccc(C(=O)NO)cc1)C(=O)Nc1ccccc1 [Nexturastat A]
Summary of the method: as §1

vemurafenib = compound: CCCS(=O)(=O)Nc1ccc(F)c(C(=O)c2c[nH]c3ncc(-c4ccc(Cl)cc4)cc23)c1F [vemurafenib]
Summary of the method: as §1

[11] = compound: CCCS(=O)(=O)Nc1ccc(F)c(C(=O)c2c[nH]c3ncc(Cl)cc23)c1F
Summary of the method: as §1

[12] = compound: CCCc1cc(C)[nH]c(=O)c1CNC(=O)c1cc(-c2ccnc(N3CCN(C)CC3)c2)cc2c1cnn2C(C)C
Summary of the method: as §1

givinostat = compound: CCN(CC)Cc1ccc2cc(COC(=O)Nc3ccc(C(=O)NO)cc3)ccc2c1 [givinostat]
Summary of the method: as §1

barasertib = compound: CCN(CCCOc1ccc2c(Nc3cc(CC(=O)Nc4cccc(F)c4)[nH]n3)ncnc2c1)CCOP(=O)(O)O [barasertib]
Summary of the method: as §1

Measured: log2 fold change

EARS2 isoform 2 (UniProt Q5JPH6)
inactive: IRAK-1-4 Inhibitor I 0.003 | ibrutinib -0.204 | [1] -0.062 | ralimetinib -0.065 | [2] -0.442 | [3] -0.001 | [4] -0.001 | pinometostat 0.021 | [5] 0.103 | [6] 0.153 | [7] -0.021 | [8] -0.181 | [9] 0.05 | [10] 0.064 | Nexturastat A -0.045 | vemurafenib 0.11 | [11] -0.027 | [12] 0.08 | givinostat 0.078 | barasertib 0.132

EDARADD (UniProt Q8WWZ3)
inactive: IRAK-1-4 Inhibitor I 0.024 | ibrutinib 0.046 | [1] -0.163 | ralimetinib -0.089 | [2] -0.016 | [3] -0.028 | [4] -0.061 | pinometostat 0 | [5] 0 | [6] 0.023 | [7] -0.023 | [8] 0.015 | [9] 0.009 | [10] 0.005 | Nexturastat A 0.057 | vemurafenib 0.035 | [11] -0.094 | [12] -0.083 | givinostat -0.037 | barasertib 0.039

DPH7 (UniProt Q9BTV6)
inactive: IRAK-1-4 Inhibitor I 0.04 | ibrutinib 0.02 | [1] -0.046 | ralimetinib -0.077 | [2] -0.005 | [3] 0.058 | [4] 0.087 | pinometostat 0.037 | [5] 0.069 | [6] -0.075 | [7] -0.059 | [8] 0.062 | [9] -0.009 | [10] 0.007 | Nexturastat A -0.095 | vemurafenib -0.01 | [11] -0.062 | [12] 0.005 | givinostat -0.001 | barasertib 0

DNAJC10 (UniProt Q8IXB1)
inactive: IRAK-1-4 Inhibitor I -0.038 | ibrutinib 0.022 | [1] 0 | ralimetinib 0.134 | [2] 0.08 | [3] 0.044 | [4] -0.015 | pinometostat 0.049 | [5] -0.009 | [6] -0.011 | [7] 0.03 | [8] 0.016 | [9] -0.042 | [10] -0.023 | Nexturastat A 0.054 | vemurafenib -0.021 | [11] 0.035 | [12] 0.193 | givinostat 0.013 | barasertib -0.017

DNAJC11 (UniProt Q9NVH1)
inactive: IRAK-1-4 Inhibitor I 0.011 | ibrutinib 0.003 | [1] -0.039 | ralimetinib -0.081 | [2] -0.015 | [3] -0.053 | [4] -0.016 | pinometostat -0.028 | [5] -0.026 | [6] 0.064 | [7] -0.038 | [8] 0.018 | [9] 0.017 | [10] 0.007 | Nexturastat A -0.104 | vemurafenib 0.007 | [11] 0 | [12] -0.018 | givinostat -0.011 | barasertib -0.008

DNAJC3 (UniProt Q13217)
inactive: IRAK-1-4 Inhibitor I -0.012 | ibrutinib -0.044 | [1] 0.053 | ralimetinib 0.029 | [2] 0.022 | [3] -0.011 | [4] -0.003 | pinometostat 0.066 | [5] 0.025 | [6] -0.058 | [7] -0.039 | [8] -0.01 | [9] -0.018 | [10] -0.005 | Nexturastat A 0.04 | vemurafenib -0.067 | [11] -0.02 | [12] 0.017 | givinostat -0.005 | barasertib -0.009

DPY19L1, A0A1B0GW05
inactive: IRAK-1-4 Inhibitor I -0.009 | ibrutinib 0.014 | [1] 0.017 | ralimetinib -0.019 | [2] -0.016 | [3] -0.094 | [4] 0.158 | pinometostat 0.032 | [5] 0.063 | [6] 0.053 | [7] 0.034 | [8] 0.045 | [9] 0.008 | [10] 0.038 | Nexturastat A 0.06 | vemurafenib -0.114 | [11] 0.023 | [12] 0.013 | givinostat 0.017 | barasertib -0.012

2 consecutive records from above, quoted:
DNAJC3 (UniProt Q13217)
inactive: IRAK-1-4 Inhibitor I -0.012 | ibrutinib -0.044 | [1] 0.053 | ralimetinib 0.029 | [2] 0.022 | [3] -0.011 | [4] -0.003 | pinometostat 0.066 | [5] 0.025 | [6] -0.058 | [7] -0.039 | [8] -0.01 | [9] -0.018 | [10] -0.005 | Nexturastat A 0.04 | vemurafenib -0.067 | [11] -0.02 | [12] 0.017 | givinostat -0.005 | barasertib -0.009

DPY19L1, A0A1B0GW05
inactive: IRAK-1-4 Inhibitor I -0.009 | ibrutinib 0.014 | [1] 0.017 | ralimetinib -0.019 | [2] -0.016 | [3] -0.094 | [4] 0.158 | pinometostat 0.032 | [5] 0.063 | [6] 0.053 | [7] 0.034 | [8] 0.045 | [9] 0.008 | [10] 0.038 | Nexturastat A 0.06 | vemurafenib -0.114 | [11] 0.023 | [12] 0.013 | givinostat 0.017 | barasertib -0.012

Remaining list, next part

DNAJC2 (UniProt Q99543)
inactive: IRAK-1-4 Inhibitor I -0.078 | ibrutinib -0.046 | [1] -0.047 | ralimetinib 0.182 | [2] -0.003 | [3] -0.31 | [4] 0.073 | pinometostat 0.253 | [5] 0.034 | [6] -0.091 | [7] -0.029 | [8] 0.011 | [9] 0.03 | [10] 0.003 | Nexturastat A 0.197 | vemurafenib 0.051 | [11] 0.047 | [12] 0.094 | givinostat 0.158 | barasertib 0.131

DPAGT1 (UniProt Q9H3H5)
inactive: IRAK-1-4 Inhibitor I 0 | ibrutinib -0.061 | [1] 0.061 | ralimetinib -0.035 | [2] -0.085 | [3] 0.056 | [4] -0.104 | pinometostat -0.105 | [5] 0 | [6] 0.078 | [7] 0.083 | [8] 0.01 | [9] 0.076 | [10] 0.065 | Nexturastat A -0.003 | vemurafenib 0.153 | [11] -0.049 | [12] -0.034 | givinostat -0.035 | barasertib 0.008

DPP9 isoform 2 (UniProt Q86TI2)
inactive: IRAK-1-4 Inhibitor I 0.02 | ibrutinib 0.002 | [1] -0.052 | ralimetinib -0.019 | [2] -0.001 | [3] -0.02 | [4] 0.019 | pinometostat 0.047 | [5] -0.012 | [6] 0.058 | [7] -0.037 | [8] -0.032 | [9] -0.003 | [10] 0.005 | Nexturastat A 0.011 | vemurafenib 0.015 | [11] 0.001 | [12] -0.014 | givinostat 0.014 | barasertib 0.009

DYNC1H1 (UniProt Q14204)
inactive: IRAK-1-4 Inhibitor I -0.015 | ibrutinib -0.024 | [1] 0.009 | ralimetinib 0.01 | [2] -0.052 | [3] -0.043 | [4] 0 | pinometostat 0.015 | [5] -0.005 | [6] 0.024 | [7] 0.015 | [8] -0.014 | [9] -0.001 | [10] 0 | Nexturastat A 0.005 | vemurafenib -0.003 | [11] 0.017 | [12] 0.004 | givinostat 0.016 | barasertib 0

DTD1 (UniProt Q8TEA8)
inactive: IRAK-1-4 Inhibitor I -0.012 | ibrutinib 0.019 | [1] -0.017 | ralimetinib -0.073 | [2] -0.001 | [3] 0.124 | [4] 0 | pinometostat -0.024 | [5] 0.021 | [6] 0.013 | [7] -0.008 | [8] 0.044 | [9] 0.008 | [10] 0.03 | Nexturastat A -0.138 | vemurafenib 0.011 | [11] 0.004 | [12] -0.009 | givinostat -0.038 | barasertib 0.011

DPH1 (UniProt Q9BZG8)
inactive: IRAK-1-4 Inhibitor I 0.029 | ibrutinib -0.031 | [1] -0.066 | ralimetinib 0.008 | [2] 0 | [3] 0.056 | [4] -0.013 | pinometostat 0.002 | [5] 0.042 | [6] -0.059 | [7] -0.033 | [8] 0.016 | [9] 0.012 | [10] 0.054 | Nexturastat A -0.06 | vemurafenib 0.093 | [11] -0.019 | [12] 0.067 | givinostat -0.185 | barasertib 0.016

DOCK11 (UniProt Q5JSL3)
inactive: IRAK-1-4 Inhibitor I -0.04 | ibrutinib -0.002 | [1] 0.025 | ralimetinib -0.021 | [2] -0.038 | [3] -0.072 | [4] 0.031 | pinometostat 0.099 | [5] 0.021 | [6] 0.025 | [7] 0.009 | [8] -0.074 | [9] -0.002 | [10] 0.016 | Nexturastat A 0.065 | vemurafenib 0.013 | [11] 0.03 | [12] -0.015 | givinostat 0.043 | barasertib 0.028

DNAJC12 (UniProt Q9UKB3)
inactive: IRAK-1-4 Inhibitor I 0.034 | ibrutinib -0.028 | [1] 0.009 | ralimetinib 0.103 | [2] 0.005 | [3] -0.008 | [4] -0.046 | pinometostat -0.04 | [5] 0.001 | [6] -0.032 | [7] 0.033 | [8] -0.003 | [9] 0.055 | [10] 0.025 | Nexturastat A -0.072 | vemurafenib -0.022 | [11] -0.017 | [12] -0.066 | givinostat -0.02 | barasertib 0.024

EDEM3 (UniProt Q9BZQ6)
inactive: IRAK-1-4 Inhibitor I -0.057 | ibrutinib -0.032 | [1] 0.028 | ralimetinib 0.036 | [2] 0.031 | [3] -0.055 | [4] -0.015 | pinometostat 0.03 | [5] 0.041 | [6] 0.034 | [7] -0.009 | [8] 0.029 | [9] -0.042 | [10] -0.067 | Nexturastat A 0.076 | vemurafenib -0.098 | [11] -0.077 | [12] 0.024 | givinostat 0.009 | barasertib -0.01
